PubChem BioAssay AID1053208, Peter MacCallum Cancer Centre, 2014

Screen: 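Find knock-downs that sensitise mouse osteosarcoma cells to doxorubicin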 (primary screen)
Cells: mouse osteosarcoma cells, early-passage culture from an engineered mouse model of fibroblastic bone tumour
Knock-down reagent: siRNA pool against mouse genes, 40 nM
Timing: about 120 h (48 h before drug, then 72 h with drug)
Treatment: doxorubicin 100 nM for 72 h, roughly 30-40% inhibitory dose
Measurement: 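Viability read as ATP luminescence after 72 h of 100 nM doxorubicin or none, duplicate wells averaged, scaled to non-targeting siRNA, then expressed as robust z-scores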
Scale: viability z-score with doxorubicin: higher = more viable cells under doxorubicin; viability z-score without drug: higher = more viable cells with knock-down alone; z-score of drug to no-drug ratio: higher = less drug sensitisation by knock-down
Call rule: 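Called active if knock-down leaves viability unchanged without drug (z within -2 to 2) but lowers it with doxorubicin (z at or under -2)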
In all, the deposit lists about 17,000 reagents; below is an unselected part. 788 of them (4.7%) count as active. 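Calls rest on z-score classes alone; an extra cut-off of viability at most 70% of control was not applied to them.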 Unmarked entries are inactive. Reagents against one gene are numbered here. A reagent listed more than once was tested more than once; the source does not tell the runs apart. Further read-outs or replicates are left out here.

| Target gene | reagent | combined z-score class | viability z-score with doxorubicin | viability z-score without drug | z-score of drug to no-drug ratio |
| --- | --- | --- | --- | --- | --- |
| Hepacam2 (HEPACAM family member 2) | 1 | no change with or without drug | 1.01 | 1.18 | 0.34 |
| Mapt (microtubule-associated protein tau) | 1 | no change with or without drug | 1.12 | -0.84 | 2.02 |
| Wasf3 (WASP family, member 3) | 1 | no change with or without drug | -0.79 | -0.51 | -0.34 |
| Senp1 (SUMO1/sentrin specific peptidase 1) | 1 | no change with or without drug | -0.67 | 0.34 | -0.79 |
| Cmtm3 (CKLF-like MARVEL transmembrane domain containing 3) | 1 | no change with or without drug | -1.35 | -1.52 | -0.34 |
| Pkhd1l1 (polycystic kidney and hepatic disease 1-like 1) | 1 | no change with or without drug | -1.8 | -0.17 | -1.69 |
| Col1a2 (collagen, type I, alpha 2) | 1 | no change with or without drug | 1.12 | 1.52 | 0.22 |
| Ccdc88a (coiled coil domain containing 88A) | 1 | no change with or without drug | 0.56 | -0.17 | 0.79 |
| Taok3 (TAO kinase 3) | 1 | no change with or without drug | -0.56 | -0.67 | 0 |
| Magi2 | 1 | no change with or without drug | -0.22 | -0.84 | 0.45 |
| Rab10 (RAB10, member RAS oncogene family) | 1 | no change with or without drug | -0.34 | 1.18 | -1.01 |
| Tars2 (threonyl-tRNA synthetase 2, mitochondrial (putative)) | 1 | no change with or without drug | 0.34 | -0.17 | 0.56 |
| Snrnp27 (small nuclear ribonucleoprotein 27 (U4/U6.U5)) | 1 | no change with or without drug | 0.67 | 0.34 | 0.56 |
| Tgoln1 (trans-golgi network protein) | 1 | no change with or without drug | -1.57 | -1.18 | -0.79 |
| Ube3c (ubiquitin protein ligase E3C) | 1 | no change with or without drug | 0.9 | 0.51 | 0.67 |
| Bmyc (brain expressed myelocytomatosis oncogene) | 1 | no change with or without drug | 0 | 0.51 | -0.22 |
| Ndrg1 (N-myc downstream regulated gene 1) | 1 | no change with or without drug | 0.67 | -0.17 | 0.9 |
| Ndrg1 (N-myc downstream regulated gene 1) | 2 | no change with or without drug | 0.67 | 0.84 | 0.22 |
| Serpina11 | 1 | no change with or without drug | -0.9 | -0.17 | -0.79 |
| Impdh2 (inosine monophosphate dehydrogenase 2) | 1 | no change with or without drug | -0.45 | -1.01 | 0.34 |
| Washc2 (WASH complex subunit 2) | 1 | no change with or without drug | 0.11 | 0.51 | -0.11 |
| Klk1b11 (kallikrein 1-related peptidase b11) | 1 | no change with or without drug | 0.79 | 1.18 | 0.11 |
| Wdr31 (WD repeat domain 31) | 1 | no change with or without drug | 0.45 | 1.18 | -0.22 |
| Phox2b (paired-like homeobox 2b) | 1 | no change with or without drug | 0.11 | -0.17 | 0.34 |
| Snx33 (sorting nexin 33) | 1 | no change with or without drug | -0.67 | -0.51 | -0.22 |
| Orai1 (ORAI calcium release-activated calcium modulator 1) | 1 | no change with or without drug | 1.12 | -1.35 | 2.47 |
| Mien1 (migration and invasion enhancer 1) | 1 | no change with or without drug | -1.01 | -0.84 | -0.45 |
| Kpnb1 (karyopherin subunit beta 1) | 1 | low cell count with and without drug | -4.61 | -4.55 | -2.25 |
| Plec (plectin) | 1 | no change with or without drug | -0.22 | 0.17 | -0.22 |
| Ep300 (E1A binding protein p300) | 1 | no change with or without drug | -0.45 | 1.52 | -1.24 |
| Src (src proto-oncogene, non-receptor tyrosine kinase) | 1 | no change with or without drug | 1.57 | 1.35 | 0.79 |
| Mgst1 (microsomal glutathione S-transferase 1) | 1 | no change with or without drug | 0.22 | 1.69 | -0.79 |
| Rgs7 (regulator of G protein signaling 7) | 1 | no change with or without drug | -0.67 | -0.51 | -0.22 |
| Rgs7 (regulator of G protein signaling 7) | 1 | low cell count without drug only | 0.45 | -3.2 | 3.48 |

4 entries from above in another layout.
Target gene | reagent | combined z-score class | viability z-score with doxorubicin | viability z-score without drug | z-score of drug to no-drug ratio
Ccdc88a (coiled coil domain containing 88A) | 1 | no change with or without drug | 0.56 | -0.17 | 0.79
Taok3 (TAO kinase 3) | 1 | no change with or without drug | -0.56 | -0.67 | 0
Magi2 | 1 | no change with or without drug | -0.22 | -0.84 | 0.45
Rab10 (RAB10, member RAS oncogene family) | 1 | no change with or without drug | -0.34 | 1.18 | -1.01
